Data reported in PMC11989279.
Results are given in words; binding and its absence hold for the method and conditions named. Binding seen in cells or lysates may run through a third protein. Some entries that bind do so weakly or less than the wild type.

Chains of the proteins cited; added tags and fusions are not shown.
UniProt P63010: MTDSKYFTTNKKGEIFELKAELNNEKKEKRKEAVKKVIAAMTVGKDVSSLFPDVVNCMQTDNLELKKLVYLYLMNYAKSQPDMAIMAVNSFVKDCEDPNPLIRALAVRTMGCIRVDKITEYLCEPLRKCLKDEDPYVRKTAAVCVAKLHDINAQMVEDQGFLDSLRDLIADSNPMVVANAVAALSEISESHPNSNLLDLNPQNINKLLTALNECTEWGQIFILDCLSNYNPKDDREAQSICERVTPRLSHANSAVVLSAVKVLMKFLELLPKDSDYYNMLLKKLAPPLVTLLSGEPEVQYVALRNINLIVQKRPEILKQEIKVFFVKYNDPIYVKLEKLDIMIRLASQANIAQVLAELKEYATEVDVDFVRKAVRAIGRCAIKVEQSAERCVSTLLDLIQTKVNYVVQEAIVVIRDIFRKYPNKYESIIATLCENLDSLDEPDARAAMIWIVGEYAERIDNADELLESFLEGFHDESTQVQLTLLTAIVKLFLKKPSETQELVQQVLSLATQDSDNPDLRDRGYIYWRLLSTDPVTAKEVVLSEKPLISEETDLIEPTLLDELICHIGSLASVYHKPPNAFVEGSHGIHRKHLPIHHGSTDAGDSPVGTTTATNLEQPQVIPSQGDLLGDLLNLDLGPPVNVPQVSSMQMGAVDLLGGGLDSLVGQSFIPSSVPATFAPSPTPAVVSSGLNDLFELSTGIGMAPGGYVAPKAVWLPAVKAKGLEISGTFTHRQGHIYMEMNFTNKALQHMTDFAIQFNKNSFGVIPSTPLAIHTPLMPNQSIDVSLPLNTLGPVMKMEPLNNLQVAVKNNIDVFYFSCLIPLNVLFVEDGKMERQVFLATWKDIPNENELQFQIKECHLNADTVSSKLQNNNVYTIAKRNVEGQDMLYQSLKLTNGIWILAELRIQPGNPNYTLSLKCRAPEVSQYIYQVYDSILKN
UniProt P25098: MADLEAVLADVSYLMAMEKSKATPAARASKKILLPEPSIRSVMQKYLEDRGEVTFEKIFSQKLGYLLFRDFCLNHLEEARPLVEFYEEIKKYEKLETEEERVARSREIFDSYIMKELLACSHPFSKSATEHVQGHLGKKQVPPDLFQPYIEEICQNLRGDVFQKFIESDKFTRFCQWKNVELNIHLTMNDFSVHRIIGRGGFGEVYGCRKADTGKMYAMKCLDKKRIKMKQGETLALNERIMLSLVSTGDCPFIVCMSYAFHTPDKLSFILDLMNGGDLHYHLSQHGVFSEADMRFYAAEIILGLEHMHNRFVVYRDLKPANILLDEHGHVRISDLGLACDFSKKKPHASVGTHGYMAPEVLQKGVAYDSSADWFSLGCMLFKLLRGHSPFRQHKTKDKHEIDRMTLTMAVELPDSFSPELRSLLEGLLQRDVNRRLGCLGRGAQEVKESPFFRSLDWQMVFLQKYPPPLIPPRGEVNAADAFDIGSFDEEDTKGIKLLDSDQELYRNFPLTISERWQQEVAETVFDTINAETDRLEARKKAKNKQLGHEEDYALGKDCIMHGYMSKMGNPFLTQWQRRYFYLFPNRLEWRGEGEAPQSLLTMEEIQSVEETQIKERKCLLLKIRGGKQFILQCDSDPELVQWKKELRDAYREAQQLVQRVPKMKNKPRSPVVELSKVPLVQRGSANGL
UniProt Q00987: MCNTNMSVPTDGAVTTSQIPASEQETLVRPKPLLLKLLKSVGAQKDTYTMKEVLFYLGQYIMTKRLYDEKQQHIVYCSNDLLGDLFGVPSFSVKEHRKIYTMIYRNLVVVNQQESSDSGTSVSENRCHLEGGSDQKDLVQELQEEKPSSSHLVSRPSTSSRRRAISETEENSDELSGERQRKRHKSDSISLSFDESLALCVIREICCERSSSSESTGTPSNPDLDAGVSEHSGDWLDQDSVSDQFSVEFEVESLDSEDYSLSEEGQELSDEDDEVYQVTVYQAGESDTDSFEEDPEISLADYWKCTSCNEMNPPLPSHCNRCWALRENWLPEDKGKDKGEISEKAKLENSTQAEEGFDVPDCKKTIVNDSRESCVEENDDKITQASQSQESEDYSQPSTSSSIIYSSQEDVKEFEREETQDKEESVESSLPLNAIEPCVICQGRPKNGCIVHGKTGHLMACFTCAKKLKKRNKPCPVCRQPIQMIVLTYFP
UniProt Q03135: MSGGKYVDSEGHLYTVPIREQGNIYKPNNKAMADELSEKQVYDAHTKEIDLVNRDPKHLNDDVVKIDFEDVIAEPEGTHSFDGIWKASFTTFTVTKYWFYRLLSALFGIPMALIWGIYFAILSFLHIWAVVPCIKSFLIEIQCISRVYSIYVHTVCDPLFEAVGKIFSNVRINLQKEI
UniProt Q00610: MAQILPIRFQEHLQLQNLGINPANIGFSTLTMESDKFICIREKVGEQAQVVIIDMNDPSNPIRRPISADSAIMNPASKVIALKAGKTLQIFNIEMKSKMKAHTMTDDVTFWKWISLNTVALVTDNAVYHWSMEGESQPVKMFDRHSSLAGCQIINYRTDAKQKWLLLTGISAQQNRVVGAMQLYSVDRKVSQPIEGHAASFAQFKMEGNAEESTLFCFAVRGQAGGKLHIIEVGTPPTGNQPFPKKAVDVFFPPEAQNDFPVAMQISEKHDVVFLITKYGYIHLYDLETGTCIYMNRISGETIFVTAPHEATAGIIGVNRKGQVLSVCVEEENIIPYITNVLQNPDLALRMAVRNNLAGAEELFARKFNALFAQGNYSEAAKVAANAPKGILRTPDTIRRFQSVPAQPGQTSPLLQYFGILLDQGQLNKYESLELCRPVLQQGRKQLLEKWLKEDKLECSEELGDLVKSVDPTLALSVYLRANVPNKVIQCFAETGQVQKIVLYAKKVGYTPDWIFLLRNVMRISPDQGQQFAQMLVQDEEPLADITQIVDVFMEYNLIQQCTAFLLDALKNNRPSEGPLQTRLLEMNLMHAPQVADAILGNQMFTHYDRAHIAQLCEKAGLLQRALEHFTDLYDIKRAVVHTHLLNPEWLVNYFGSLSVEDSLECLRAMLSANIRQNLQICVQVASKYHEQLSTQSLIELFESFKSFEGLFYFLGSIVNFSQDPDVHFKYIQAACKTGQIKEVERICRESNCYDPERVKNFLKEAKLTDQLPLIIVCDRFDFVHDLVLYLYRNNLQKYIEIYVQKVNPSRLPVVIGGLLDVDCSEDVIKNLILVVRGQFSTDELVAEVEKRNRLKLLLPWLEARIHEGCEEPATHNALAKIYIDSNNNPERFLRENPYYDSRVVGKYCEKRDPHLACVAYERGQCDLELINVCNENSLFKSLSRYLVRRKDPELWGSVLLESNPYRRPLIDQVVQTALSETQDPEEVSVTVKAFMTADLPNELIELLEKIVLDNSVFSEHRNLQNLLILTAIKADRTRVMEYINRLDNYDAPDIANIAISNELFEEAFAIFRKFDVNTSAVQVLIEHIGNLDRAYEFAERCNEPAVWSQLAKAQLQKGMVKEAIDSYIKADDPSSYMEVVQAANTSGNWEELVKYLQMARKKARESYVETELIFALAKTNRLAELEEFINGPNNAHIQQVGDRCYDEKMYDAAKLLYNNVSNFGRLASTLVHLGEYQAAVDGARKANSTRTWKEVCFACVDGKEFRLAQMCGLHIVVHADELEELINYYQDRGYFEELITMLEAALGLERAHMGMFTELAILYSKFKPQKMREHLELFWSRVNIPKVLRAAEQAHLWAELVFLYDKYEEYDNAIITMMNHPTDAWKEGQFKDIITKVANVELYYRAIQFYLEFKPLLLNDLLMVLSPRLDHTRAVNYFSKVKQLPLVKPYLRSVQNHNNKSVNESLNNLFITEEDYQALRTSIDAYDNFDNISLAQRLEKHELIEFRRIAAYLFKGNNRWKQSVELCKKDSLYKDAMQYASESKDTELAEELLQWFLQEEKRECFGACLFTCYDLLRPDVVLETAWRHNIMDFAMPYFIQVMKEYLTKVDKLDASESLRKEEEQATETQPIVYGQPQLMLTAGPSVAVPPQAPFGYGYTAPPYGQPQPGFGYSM

How the values were obtained:
[1] = biological target: FLAG-tagged β2 adaptin (β2 subunit of adaptor protein complex 2) (UniProt P63010); test: co-IP; HEK-293 cells transfected with D2R and the FLAG-tagged bait, treated with vehicle or 10 μM DA (2 min; 2 and 5 min in Figure 8B); RIPA lysates, agarose beads with antibodies against FLAG 2–3 h at 4 °C; immunoblot of the co-precipitate
[2] = biological target: FLAG-arrestin3, wild type (UniProt P32121); test: co-IP; Con-KD and GRK2-KD HEK-293 cells transfected with D2R, HA-Ub, FLAG-arrestin3 and a mock vector, WT-GRK2 or 4KR-GRK2; 10 μM DA 2 min; how Mdm2 was detected is not told in the legend
FLAG-GRK2, wild type = FLAG-GRK2, wild type (UniProt P25098); test: co-IP; HEK-293 cells transfected with D2R and the FLAG-tagged bait, treated with vehicle or 10 μM DA (2 min; 2 and 5 min in Figure 8B); RIPA lysates, agarose beads with antibodies against FLAG 2–3 h at 4 °C; immunoblot of the co-precipitate
[3] = biological target: FLAG-arrestin3, wild type (UniProt P32121); test: as above

binding [1]	binding (FLAG-GRK2, wild type)	binding [3]	further results	Substance
binds	–	–	–	GFP-tagged K11/12R-arrestin3 (from UniProt P32121 1-409)
binds	–	–	–	GFP-tagged WT-arrestin3 (from UniProt P32121 1-409)
binds	–	–	–	GRK2 (G protein-coupled receptor kinase 2), wild type, untagged (from UniProt P25098 1-689) (enzyme)
–	–	–	binding [2]: binds	Mdm2 (as found with FLAG-arrestin3, Figure 3D) (from UniProt Q00987 1-491) (enzyme)
–	binds	binds	–	caveolin1 (Cav1), endogenous (from UniProt Q03135 1-178)
–	binds	binds	–	clathrin heavy chain (CHC), endogenous (from UniProt Q00610 1-1675)
